The text below walks through data of the supplement of paper PMC3047530.

Structures are written as SMILES. This is one part of the list. Single values are uncertain, as repeats are few or missing.

This experiment has as its system Geomyces destructans. Put plainly: growth inhibition relative to DMSO control; higher = stronger growth inhibition. Particulars: 10 µM; 15 °C; incubation time 10 days.
Take `COc1cc2c(c(OC)c1OC)-c1ccc(OC)c(=O)cc1[C@@H](NC(C)=O)CC2`: the growth inhibition is -4.67%.

With `N#C[C@H](O[C@@H]1O[C@H](CO[C@@H]2O[C@H](CO)[C@@H](O)[C@H](O)[C@H]2O)[C@@H](O)[C@H](O)[C@H]1O)c1ccccc1`, the growth inhibition is -4.15%.

Take `CN1C(=O)CN=C(c2ccccc2)c2cc(Cl)ccc21`: the growth inhibition is -10.6%. With `C[C@]12CC[C@H](O)CC1=CC[C@@H]1[C@@H]2CC[C@]2(C)C(=O)CC[C@@H]12`, the growth inhibition was -8.86%. Turning to `CC1C=CC=CCCC=CC=CC=CC=CC(OC2OC(C)C(O)C(N)C2O)CC2OC(O)(CC(O)C(O)CCC(O)CC(O)CC(O)CC(=O)OC(C)C(C)C1O)CC(O)C2C(=O)O` (stereo not drawn), the growth inhibition was -9.03%. On to `CC(=O)O[C@H]1CC[C@@]2(C)[C@H](CC[C@@H]3[C@@H]2CC[C@]2(C)[C@@H](C4=CC(=O)OC4)[C@@H](OC(C)=O)C[C@]32O)C1`, for which the growth inhibition was -2.7%. `CC[N+]1(C)CCCC(OC(=O)C(O)(c2ccccc2)c2ccccc2)C1` (stereo not drawn): the growth inhibition is -3.5%.

As for `CC1=C2C(=CO[C@H](C)[C@H]2C)C(O)=C(C(=O)O)C1=O`, the growth inhibition is -36.6%. Take `CC(C)Nc1nc(Cl)nc(NC(C)C)n1`: the growth inhibition was -2.1%. Regarding `N#Cc1c(Cl)c(Cl)c(Cl)c(C#N)c1Cl`, the growth inhibition is -2.08%. On to `O=S1OCC2C(CO1)C1(Cl)C(Cl)=C(Cl)C2(Cl)C1(Cl)Cl` (stereo not drawn), for which the growth inhibition amounted to 7.5%. For `CCCCSP(=O)(SCCCC)SCCCC`, the growth inhibition was -5%. As for `C[C@]1(C(=O)O)CCC[C@]2(C)c3cc(O)ccc3CC[C@@H]12`, the growth inhibition was -24.1%. With `Cc1[nH]c2ccccc2c1CN(C)C`, the growth inhibition was -2.99%. `Cc1nccc2c1[nH]c1cc(O)ccc12`: the growth inhibition is -4.09%.

Consider `CC(C)c1cc2c(c(O)c1O)[C@@]1(C(=O)O)CCCC(C)(C)[C@@H]1CC2`, for which the growth inhibition was determined as 0.0983%. `CCCCCCC(C)OC(=O)COc1ccc(Cl)cc1Cl` (stereo not drawn): the growth inhibition was -2.56%.

As for `Oc1ccc2c3c1O[C@H]1[C@@H](O)CC[C@@]4(O)[C@@H](C2)N(CC2CCC2)CC[C@]314`, the growth inhibition is -11.1%. In the case of `O=C(O)CC[N+](=O)[O-]` [BOVINOCIDIN (3-nitropropionic acid)], the growth inhibition is -4.17%.

As to `CC(=O)O[C@@H]1CC2C(C)(C)[C@H](O)C=C[C@]2(C)C2CC[C@]3(C)C(=CC(=O)O[C@H]3c3ccoc3)[C@@]21C` (stereo partly drawn) [3-alpha-HYDROXYDEOXYGEDININ], the growth inhibition was -8.54%. Under `CO[C@@H]1C[C@H](O[C@H]2CC[C@]3(C)[C@H]4CC[C@]5(C)[C@@H](C6=CC(=O)OC6)CC[C@]5(O)[C@@H]4CC[C@]3(O)C2)O[C@H](C)[C@H]1O` stands -17.1%. Under `CN1C[C@H](CNC(=O)OCc2ccccc2)C[C@@H]2c3cccc4c3c(cn4C)C[C@H]21` stands 17.4%; under `O=C(O)CF`, -2.67%; under `O=C(CCCN1CCC2(CC1)C(=O)NCN2c1ccccc1)c1ccc(F)cc1`, -10.2%. Under `CC1(C)C(=O)[C@@H]2O[C@@H]2[C@@]2(C)C1C[C@@H](O)[C@]1(C)C2CC[C@@]2(C)[C@H](c3ccoc3)OC(=O)C3OC321` (stereo partly drawn) [1,2alpha-EPOXYDEACETOXYDIHYDROGEDUNIN] stands -4.12%. Consider `O=[N+]([O-])O[C@H]1CO[C@H]2[C@@H]1OC[C@H]2O[N+](=O)[O-]`, for which the growth inhibition is -10.9%.

As to `COc1cc2ccc(=O)oc2c2ccoc12`, the growth inhibition came out at 4.01%.

`O=c1cccc2n1C[C@@H]1CNC[C@H]2C1`: the growth inhibition stood at 15.3%. Take `CCC(=O)Nc1ccc(Cl)c(Cl)c1`: the growth inhibition worked out at 1.25%. Regarding `CC[C@@H](C)C(=O)O[C@H]1[C@H](O)[C@H]2[C@@H](CN3C[C@@H](C)CC[C@H]3[C@@]2(C)O)[C@@H]2C[C@]34O[C@]5(O)[C@@H](OC(=O)[C@@](C)(O)CC)CC[C@@]3(C)[C@@H]5[C@@H](OC(C)=O)[C@@H](OC(C)=O)[C@H]4[C@@]21O`, the growth inhibition is -9.05%.

As to `ClC1=C(Cl)C2(Cl)C3C4CC(C5OC45)C3C1(Cl)C2(Cl)Cl` (stereo not drawn), the growth inhibition is -4.39%. Turning to `O=C(O)c1nn(Cc2ccc(Cl)cc2Cl)c2ccccc12`, the growth inhibition was -0.92%. Consider `C[C@@H]1C[C@@H]([C@H](O)CC2CC(=O)NC(=O)C2)C(=O)[C@@H](C)C1`, for which the growth inhibition is 44.6%. As for `COc1cc2c(cc1O)CCN[C@@H]2C`, the growth inhibition is -7.69%. For `CC(=O)[O-].CC(=O)[O-].[Cd+2]`, the growth inhibition turned out to be 4.18%.

With `COc1cc2c(cc1OC)[C@@H]1C(=O)c3ccc4c(c3O[C@@H]1CO2)CC(C(C)C)O4` (stereo partly drawn), the growth inhibition was -12.8%. Turning to `CC[C@@H](CO)NC(=O)[C@@H]1C=C2c3cccc4[nH]cc(c34)C[C@H]2N(C)C1`, the growth inhibition is -37%.

With `CCCCOC(=O)c1ccccc1C(=O)OCCCC`, the growth inhibition amounted to 9.48%. Regarding `COC(=O)C=C(C)OP(=O)(OC)OC`, the growth inhibition is -3.78%. Under `CCC(C)C(=O)OC1CC2(C)C(c3ccoc3)OC(=O)CC23OC2(C)OC34C(OC(=O)C(C)C)C3(O)C(OC(=O)C5(C)OC5C)C5(C)CC3(O)C(C)(C5CC(=O)OC)C14O2` (stereo not drawn) stands -8.54%; under `C=CCc1cc(OC)c2c(c1OC)OCO2`, -7.68%; under `c1cncc([C@@H]2CCCCN2)c1`, -2.02%. Take `CC(C)(O)[C@@H]1[C@H]2OC(=O)[C@@H]1[C@]1(O)C[C@H]3O[C@]34C(=O)O[C@H]2[C@]14C`: the growth inhibition is -6.07%. With `CC(C)(C#N)O[C@@H]1O[C@H](CO)[C@@H](O)[C@H](O)[C@H]1O`, the growth inhibition was -4.71%.

`C=C(C)[C@H]1Cc2c(ccc3c(=O)c4c(oc23)COc2cc(OC)c(OC)cc2-4)O1`: the growth inhibition came out at 8.58%.

Take `Clc1ccc(Cl)cc1`: the growth inhibition was -8.51%.

For `CN[C@@H]1[C@@H](O)[C@@H](O[C@@H]2[C@@H](O)[C@H](O[C@H]3O[C@H](CN)CC[C@H]3N)[C@@H](N)C[C@H]2N)OC[C@]1(C)O.CN[C@@H]1[C@@H](O)[C@@H](O[C@@H]2[C@@H](O)[C@H](O[C@H]3O[C@H]([C@@H](C)N)CC[C@H]3N)[C@@H](N)C[C@H]2N)OC[C@]1(C)O.CN[C@@H]1[C@@H](O)[C@@H](O[C@@H]2[C@@H](O)[C@H](O[C@H]3O[C@H]([C@@H](C)NC)CC[C@H]3N)[C@@H](N)C[C@H]2N)OC[C@]1(C)O`, the growth inhibition was -2.05%. Turning to `COc1ccc2c(c1O)-c1c(OC)c(OC)cc3c1[C@H](C2)N(C)CC3`, the growth inhibition is -6.04%. Under `NC(=O)c1cc([N+](=O)[O-])cc([N+](=O)[O-])c1` stands -15.8%; under `O=C1CC[C@@]2(O)[C@H]3Cc4ccc(O)c5c4[C@@]2(CCN3CC2CC2)[C@H]1O5`, -5.04%. Take `CC(=O)[C@H]1CC[C@H]2[C@@H]3CC[C@H]4C[C@H](O)CC[C@]4(C)[C@H]3CC[C@]12C`: the growth inhibition came out at 2.99%. Turning to `CCOC(=O)CC(SP(=S)(OC)OC)C(=O)OCC` (stereo not drawn), the growth inhibition was -10.6%. For the compound `NCC(CC(=O)O)c1ccc(Cl)cc1` (stereo not drawn), the growth inhibition is -25.6%.

As for `CC(NC(C)(C)C)C(=O)c1cccc(Cl)c1` (stereo not drawn), the growth inhibition worked out at 2.03%. With `C[C@@H]1O[C@@H](O[C@H]2CC[C@]3(C=O)[C@H]4CC[C@]5(C)[C@@H](C6=CC(=O)OC6)CC[C@]5(O)[C@@H]4CC[C@]3(O)C2)[C@H](O)[C@H](O)[C@H]1O`, the growth inhibition was -18.3%.

As to `CN1[C@@H]2C[C@@H](OC(=O)[C@H](CO)c3ccccc3)C[C@H]1[C@@H]1O[C@@H]12`, the growth inhibition was 0.89%.

In the case of `CC1(C)C2CC(=O)[C@]3(C)C(CC[C@@]4(C)[C@H](c5ccoc5)OC(=O)C5OC543)[C@@]2(C)[C@@H](O)C[C@H]1O` (stereo partly drawn), the growth inhibition was 1.97%. Regarding `ClC(Cl)=C(c1ccc(Cl)cc1)c1ccc(Cl)cc1`, the growth inhibition stood at 2.92%. On to `CCOC(=O)C1C(C=C(C)C)C1(C)C` (stereo not drawn), for which the growth inhibition came out at 0.578%. Regarding `CCOP(=S)(OCC)SCSCC`, the growth inhibition was -5.61%. With `CCC1C2CC3C4N(C)c5ccccc5C45CC(C2C5OC(C)=O)N3C1OC(C)=O` (stereo not drawn), the growth inhibition was -14.9%. As to `CCC(C)C(=O)O[C@@H]1C[C@@]2(C)[C@H](c3ccoc3)OC(=O)CC23OC2(C)O[C@]14[C@]1(C)[C@@H](CC(=O)OC)C5(C)CC1(O)[C@](O)(C5OC(=O)C1(C)OC1C)[C@@H](OC(C)=O)[C@]34O2` (stereo partly drawn), the growth inhibition was -4.75%. Under `N[C@@H]1C[C@H]1c1ccccc1` stands -42.3%; under `NNCc1cccc(O)c1`, 4.37%.

For the compound `[O-][n+]1ccccc1[S-].[O-][n+]1ccccc1[S-].[Zn+2]`, the growth inhibition was 81.1%. Under `Cc1ccc2cc3c(ccc4ccccc43)c3c2c1CC3` stands -25.2%.

On to `C[C@@H]1C(=O)O[C@H]2[C@H]1CC[C@@]1(C)C=CC(=O)[C@@]3(C)O[C@@]213` [EPOXY (4,5alpha)-4,5-DIHYDROSANTONIN], for which the growth inhibition is -24.9%.

For the compound `C=CCN1CC[C@]23c4c5ccc(O)c4O[C@H]2C(=O)CC[C@@]3(O)[C@H]1C5`, the growth inhibition came to 0.28%. Under `C=CCc1ccc2c(c1)OCO2` stands 3.28%; under `CCCC(C)C1(CC)C(=O)NC(=O)NC1=O` (stereo not drawn), -13.9%; under `C=C1C([C@]2(C)C(CC(=O)OC)[C@@](C)(COC(C)=O)OC(=O)C[C@@H]2OC(C)=O)[C@@H](OC=O)[C@H](OC(=O)C(OC(C)=O)C(C)CC)[C@@]2(C)[C@H](c3ccoc3)CC(=O)C12O` (stereo partly drawn), -4.75%. With `COP(=O)(OC)OC=C(Cl)Cl`, the growth inhibition is -6.68%. Take `C[C@H]1CC[C@]2(NC1)O[C@H]1C[C@H]3[C@@H]4CC[C@H]5C[C@@H](O)CC[C@]5(C)[C@H]4CC[C@]3(C)[C@H]1[C@@H]2C`: the growth inhibition was -2.54%. For the compound `S=C=NCc1ccccc1`, the growth inhibition was -41%. For `C[C@]12CCC(=O)C=C1C=C[C@@H]1[C@@H]2CC[C@@]2(C)[C@H]1CC[C@@]2(O)CCC(=O)O`, the growth inhibition was -7.38%.

On to `CCOP(=S)(OCC)SCn1c(=O)oc2cc(Cl)ccc21`, for which the growth inhibition was -5.61%.

`CCNc1nc(Cl)nc(NCC)n1`: the growth inhibition worked out at 1.4%. Under `O=C(O)COc1ccc(Cl)cc1Cl` stands -9.12%; under `CO[C@H]1[C@H](O)[C@H](O[C@H]2CC[C@@]3(C=O)[C@H](CC[C@@H]4[C@@H]3CC[C@]3(C)[C@@H](C5=CC(=O)OC5)CC[C@]43O)C2)O[C@@H](C)[C@@H]1O`, -32%. Under `CC[C@@H](C(=O)[C@@H](C)[C@@H](O)[C@H](C)[C@@H]1O[C@@H]([C@@H](CC)C(=O)O)CC[C@@H]1C)[C@H]1O[C@]2(C=C[C@@H](O)[C@]3(CC[C@@](C)([C@H]4CC[C@](O)(CC)[C@H](C)O4)O3)O2)[C@H](C)C[C@@H]1C` stands -8.96%; under `CC(=O)O[C@@H]1[C@H]2CC[C@H]3[C@@](C)(O)[C@@H]4C[C@H](O)C(C)(C)[C@@]4(O)[C@H](O)C[C@@]13C[C@@]2(C)O`, -6.22%.

Take `COc1cc2c3cc1Oc1c(OC)c(OC)cc4c1[C@@H](Cc1cccc(c1)Oc1ccc(c(O)c1)C[C@@H]3N(C)CC2)N(C)CC4`: the growth inhibition is -4.24%. Under `O=c1ccc2cc(O[C@@H]3O[C@H](CO)[C@@H](O)[C@H](O)[C@H]3O)c(O)cc2o1` stands -12.9%; under `COP(=O)(NC(C)=O)SC` (stereo not drawn), -5%; under `NCC(O)c1ccc(O)cc1` (stereo not drawn), 1.57%. In the case of `O=c1c2ccccc2[se]n1-c1ccccc1`, the growth inhibition is -36.7%.

Turning to `C[C@]12CC[C@H]3[C@@H](CCC4=CC(=O)CC[C@@]43C)[C@@H]1CC[C@@H]2O`, the growth inhibition is -27.8%. Regarding `N=C(NCCC[C@H](N)C(=O)O)N[N+](=O)[O-]`, the growth inhibition was -15.9%. Under `C[C@]12CCC(=O)C[C@@H]1CC[C@@H]1[C@@H]2CC[C@]2(C)C(=O)CC[C@@H]12` [5alpha-ANDROSTAN-3,17-DIONE] stands -3.3%; under `C[C@]12CC[C@H](O)C[C@H]1CC[C@@H]1[C@@H]2CC[C@]2(C)[C@@H](C3=CC(=O)OC3)[C@@H](O)C[C@]12O`, 5.43%. Under `CNC(=O)CSP(=S)(OC)OC` stands -7.29%; under `CCNc1nc(Cl)nc(NC(C)C)n1`, -8.81%; under `COc1c2c(cc3c1OCO3)CCN(C)C2`, -6.26%.
